Results: paper PMC7024211, “Antifouling Napyradiomycins from Marine-Derived Actinomycetes Streptomyces aculeolatus” (Marine Drugs, 2020)
Several values for one entry are separate records, joined by “and”; a condition that tells them apart may be missing. Identical values can stand only once.

test system: M. galloprovincialis plantigrade larvae; experiment: Mussel plantigrade larvae settlement, 15 h acute exposure assay; type: in vivo
Experimental: Mussel (M. galloprovincialis) adhesive larvae (plantigrades) were used to assess in vivo the antifouling activity of napyradiomycins (1–12) towards macrofouling. Juvenile mussel aggregates were collected at the intertidal rocky shore during low spring tides, at Memória beach, Matosinhos, Portugal (41°13′59″ N; 8°43′28″ W). At the laboratory, immediately before the bioassays, mussel plantigrade larvae were screened and isolated from the juvenile aggregates using a binocular microscope (Olympus SZX2-ILLT, Hamburg, Germany) and washed with filtered seawater to remove organic debris. Only competent plantigrade larvae (those showing foot exploratory behavior) were selected and used in the exposure bioassays following previously validated procedures. Plantigrades were exposed in 24-well polystyrene plates for 15 h in the darkness at 18 °C. DMSO was used as solvent for crude extracts, fractions and pure compounds stock and working solutions. Working solutions were prepared by successive dilutions of stock solutions in DMSO and then diluted in filtered seawater to obtain the test solutions. DMSO concentration in test solutions was always 0.1%. Four well replicates were used per condition with five larvae per well. Two negative controls, one with ultra-pure water and the other with DMSO 0.1% were included in all bioassays, as well as a positive control with 5 μM CuSO4 (a potent antifouling agent). Anti-settlement bioactivity was determined by the presence/absence of fixed byssal threads produced by each individual larvae for all the conditions tested. […] Chi-square Pearsons goodness-of-fit test was applied to data in order to determine EC50. Significance was considered at p < 0.01 for all analyses, and 95% lower and upper confidence limits [95% LCL; UCL] were presented. Therapeutic ratio (LC50/EC50) was used to evaluate the effectiveness vs. toxicity of compounds [19, 21].

| SMILES | LC50/EC50 (therapeutic ratio) |
| --- | --- |
| CC(C)=CCCC(C)=CCC12OC(C)(C)C(Cl)CC1(Cl)C(=O)c1c(O)cc(O)cc1C2=O (centres unmarked) [Napyradiomycin 1, napyradiomycin A1] | 18.3 and 18.32 |
| CC(=CCCC(C)=CCC12OC(C)(C)C(Cl)CC1(Cl)C(=O)c1c(O)cc(O)cc1C2=O)CO (centres unmarked) [Napyradiomycin 2, 18-hydroxynapyradiomycin A1] | 6.00 |
| C=C(C)C(O)CC/C(C)=C/C[C@@]12OC(C)(C)[C@H](Cl)C[C@]1(Cl)C(=O)c1c(O)cc(O)cc1C2=O (some centres unmarked) [Napyradiomycin 4, napyradiomycin A2] | 1.89 |
| Cc1c(O)cc2c(c1O)C(=O)C1(Cl)CC(Cl)C(C)(C)OC1(CC1C(C)(O)CCC(Cl)C1(C)C)C2=O (centres unmarked) [Napyradiomycin 10, napyradiomycin A80915C] | 117.3 and 117.28 |
| C=C1CCC(Cl)C(C)(C)C1C[C@@]12OC(C)(C)[C@H](Cl)C=C1C(=O)c1c(cc(O)c(C)c1O)C2=O (some centres unmarked) [Napyradiomycin 12, 4-dehydro-4a-dechloro-napyradiomycin A80915A] | 12.67 |
